Measurements from the supplement of paper PMC10849652.
This is one part of the list.

Protein sequences, listed by entry. Tags and fused reporters are not part of them. Lines headed by an entry give the natural chain unless they say otherwise; changes in a name come on top.
UniProt Q68DK7: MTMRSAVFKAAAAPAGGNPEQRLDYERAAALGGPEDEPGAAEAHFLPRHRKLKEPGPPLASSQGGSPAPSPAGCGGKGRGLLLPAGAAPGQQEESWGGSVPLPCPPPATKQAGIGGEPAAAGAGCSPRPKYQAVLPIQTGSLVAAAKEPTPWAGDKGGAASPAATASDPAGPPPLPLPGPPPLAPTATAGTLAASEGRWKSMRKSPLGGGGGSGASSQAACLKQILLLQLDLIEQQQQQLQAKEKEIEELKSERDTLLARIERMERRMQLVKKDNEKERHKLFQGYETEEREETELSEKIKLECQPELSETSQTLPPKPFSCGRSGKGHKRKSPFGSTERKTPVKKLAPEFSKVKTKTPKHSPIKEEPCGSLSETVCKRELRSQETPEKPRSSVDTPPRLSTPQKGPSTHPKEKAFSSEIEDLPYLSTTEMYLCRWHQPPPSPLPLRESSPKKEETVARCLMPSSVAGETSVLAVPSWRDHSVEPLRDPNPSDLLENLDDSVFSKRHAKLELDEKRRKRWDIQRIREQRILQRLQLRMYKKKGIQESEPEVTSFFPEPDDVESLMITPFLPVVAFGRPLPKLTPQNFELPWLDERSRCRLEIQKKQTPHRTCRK
UniProt P43246, whole entry, looked up: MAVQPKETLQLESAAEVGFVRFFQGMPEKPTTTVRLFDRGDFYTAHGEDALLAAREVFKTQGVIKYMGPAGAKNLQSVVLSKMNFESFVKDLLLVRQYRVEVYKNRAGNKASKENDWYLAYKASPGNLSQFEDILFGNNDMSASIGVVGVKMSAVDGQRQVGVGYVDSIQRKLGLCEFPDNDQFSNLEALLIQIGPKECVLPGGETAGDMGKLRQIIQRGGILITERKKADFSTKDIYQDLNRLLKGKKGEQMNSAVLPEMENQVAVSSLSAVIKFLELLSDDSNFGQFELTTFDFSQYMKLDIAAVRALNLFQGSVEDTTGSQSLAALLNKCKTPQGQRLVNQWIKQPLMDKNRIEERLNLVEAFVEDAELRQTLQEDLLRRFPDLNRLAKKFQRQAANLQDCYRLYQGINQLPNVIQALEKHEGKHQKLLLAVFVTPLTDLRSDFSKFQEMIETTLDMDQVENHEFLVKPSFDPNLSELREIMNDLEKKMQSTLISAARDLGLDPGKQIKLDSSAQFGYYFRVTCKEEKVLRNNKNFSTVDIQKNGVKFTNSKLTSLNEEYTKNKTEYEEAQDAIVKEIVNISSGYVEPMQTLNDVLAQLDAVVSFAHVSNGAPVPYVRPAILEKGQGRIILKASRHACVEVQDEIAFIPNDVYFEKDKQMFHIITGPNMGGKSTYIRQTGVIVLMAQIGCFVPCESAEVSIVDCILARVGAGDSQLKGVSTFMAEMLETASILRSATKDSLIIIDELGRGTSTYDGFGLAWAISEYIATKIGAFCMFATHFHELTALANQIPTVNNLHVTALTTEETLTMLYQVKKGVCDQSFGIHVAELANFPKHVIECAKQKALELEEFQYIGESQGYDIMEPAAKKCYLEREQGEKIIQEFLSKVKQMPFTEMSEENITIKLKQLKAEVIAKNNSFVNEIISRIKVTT
UniProt Q9BUK6: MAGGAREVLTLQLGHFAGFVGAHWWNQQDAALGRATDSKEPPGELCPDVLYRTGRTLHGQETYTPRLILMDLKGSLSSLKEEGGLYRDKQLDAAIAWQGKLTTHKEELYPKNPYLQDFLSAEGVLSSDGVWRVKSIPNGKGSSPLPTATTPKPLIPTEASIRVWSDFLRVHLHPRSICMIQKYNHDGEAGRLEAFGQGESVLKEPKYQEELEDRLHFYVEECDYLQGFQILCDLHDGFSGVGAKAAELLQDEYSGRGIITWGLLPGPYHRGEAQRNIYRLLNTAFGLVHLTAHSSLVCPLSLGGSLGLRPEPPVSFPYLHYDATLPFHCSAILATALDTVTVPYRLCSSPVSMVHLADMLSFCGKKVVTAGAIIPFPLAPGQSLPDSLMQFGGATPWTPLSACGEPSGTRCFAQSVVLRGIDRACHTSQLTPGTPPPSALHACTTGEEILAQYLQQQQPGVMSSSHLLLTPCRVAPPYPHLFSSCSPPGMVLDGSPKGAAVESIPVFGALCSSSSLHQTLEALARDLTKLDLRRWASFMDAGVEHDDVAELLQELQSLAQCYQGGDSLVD
UniProt Q96DH6: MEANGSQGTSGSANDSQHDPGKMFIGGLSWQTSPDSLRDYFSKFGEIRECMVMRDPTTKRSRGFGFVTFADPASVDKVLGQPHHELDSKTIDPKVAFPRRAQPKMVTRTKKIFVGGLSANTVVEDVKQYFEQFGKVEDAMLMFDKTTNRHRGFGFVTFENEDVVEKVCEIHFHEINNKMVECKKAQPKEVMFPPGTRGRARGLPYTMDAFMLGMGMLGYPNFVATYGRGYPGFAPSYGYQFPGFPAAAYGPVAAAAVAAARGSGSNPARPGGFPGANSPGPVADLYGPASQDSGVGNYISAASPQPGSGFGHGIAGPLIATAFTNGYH
UniProt Q15800: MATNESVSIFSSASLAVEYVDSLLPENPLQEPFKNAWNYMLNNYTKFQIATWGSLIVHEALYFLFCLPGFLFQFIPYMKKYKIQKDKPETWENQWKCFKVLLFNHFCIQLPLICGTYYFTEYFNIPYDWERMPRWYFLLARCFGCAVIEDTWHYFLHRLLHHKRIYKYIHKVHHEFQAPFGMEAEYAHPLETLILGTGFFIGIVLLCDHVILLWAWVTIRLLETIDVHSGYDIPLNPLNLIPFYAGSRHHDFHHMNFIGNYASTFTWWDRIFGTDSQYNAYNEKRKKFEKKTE
UniProt Q9UGC7: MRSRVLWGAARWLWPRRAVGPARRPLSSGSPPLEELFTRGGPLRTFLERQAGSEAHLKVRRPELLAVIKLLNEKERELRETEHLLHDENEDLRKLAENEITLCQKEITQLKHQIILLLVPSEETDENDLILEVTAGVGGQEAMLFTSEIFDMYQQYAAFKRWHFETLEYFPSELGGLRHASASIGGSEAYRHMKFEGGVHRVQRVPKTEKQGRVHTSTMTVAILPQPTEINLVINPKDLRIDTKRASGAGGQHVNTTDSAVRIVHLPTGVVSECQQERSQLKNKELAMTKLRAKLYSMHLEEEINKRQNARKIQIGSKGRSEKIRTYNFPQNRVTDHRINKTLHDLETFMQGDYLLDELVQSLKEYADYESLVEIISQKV
UniProt Q96E11: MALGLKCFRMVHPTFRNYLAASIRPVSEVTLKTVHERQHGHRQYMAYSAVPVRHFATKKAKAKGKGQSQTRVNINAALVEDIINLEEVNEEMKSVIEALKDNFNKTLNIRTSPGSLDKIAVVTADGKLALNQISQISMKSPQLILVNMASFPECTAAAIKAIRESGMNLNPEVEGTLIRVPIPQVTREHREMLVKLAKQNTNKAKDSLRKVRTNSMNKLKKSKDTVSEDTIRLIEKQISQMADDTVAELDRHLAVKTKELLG
UniProt O94776: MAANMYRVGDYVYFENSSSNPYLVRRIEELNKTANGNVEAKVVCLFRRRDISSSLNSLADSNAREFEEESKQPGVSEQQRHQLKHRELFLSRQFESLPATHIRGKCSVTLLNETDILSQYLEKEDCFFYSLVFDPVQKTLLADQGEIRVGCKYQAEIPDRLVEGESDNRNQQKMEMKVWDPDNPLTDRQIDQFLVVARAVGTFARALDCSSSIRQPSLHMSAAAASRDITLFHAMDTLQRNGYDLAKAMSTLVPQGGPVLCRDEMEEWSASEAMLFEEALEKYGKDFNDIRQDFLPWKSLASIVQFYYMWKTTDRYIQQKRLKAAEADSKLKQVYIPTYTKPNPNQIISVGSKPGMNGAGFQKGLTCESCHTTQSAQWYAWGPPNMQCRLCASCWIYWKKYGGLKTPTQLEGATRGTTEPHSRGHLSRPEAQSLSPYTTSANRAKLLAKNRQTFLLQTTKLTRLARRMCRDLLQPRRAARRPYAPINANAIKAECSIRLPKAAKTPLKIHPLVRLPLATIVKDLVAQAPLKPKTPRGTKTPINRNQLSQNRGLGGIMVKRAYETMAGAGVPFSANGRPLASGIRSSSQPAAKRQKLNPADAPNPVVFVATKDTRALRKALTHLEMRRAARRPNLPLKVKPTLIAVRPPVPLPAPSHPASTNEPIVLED

Columns and labels:
Test in all cases: log2 fold change, soluble protein after heating vs DMSO (PISA); higher = thermal stabilisation; K562 lysate, 10 uM; active = over 0.2 and 3.5 SD of the protein, either way, in both replicates (recomputed)
erlotinib = compound: C#Cc1cccc(Nc2ncnc3cc(OCCOC)c(OCCOC)cc23)c1 [erlotinib]
Summary of the method: (§1)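 K562 pellets were dounce-homogenised in PBS pH 7.4 containing 1 mM MgCl2, and the crude extract, at 1 mg/mL protein, was exposed to 10 μM compound for 30 min. Aliquots were heated for 3 min across 48°C-58°C, pooled, brought to 0.5% NP-40 at 4°C and spun at 21,000xg for 90 min, with the supernatant taken as soluble protein. TMTpro 16plex LC-MS/MS with equalised channel sums quantified that protein. Values are log-two fold changes in thermal stability relative to solvent controls, taken from duplicates.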

[1] = compound: C/C(=N\NC(=O)C1=CC(=CC=C1)S(=O)(=O)N2CCOCC2)/C3=C(C=CC(=C3)Cl)O
Summary of the method: as §1

[2] = compound: C1=CC(=CC=C1C2=NC3=C(N2)C=C(C=C3)C(=O)N)OC4=CC=C(C=C4)Cl
Summary of the method: as §1

[3] = compound: C1=CC2=C(C=CC(=C2)/C=C\3/C(=O)NC(=NCC4=CC=CS4)S3)N=C1
Summary of the method: as §1

[4] = compound: C1=CC2=NC=CN=C2C=C1/C=C/3\C(=O)NC(=O)S3
Summary of the method: as §1

[5] = compound: C1=CC=C(C=C1)C2=NC(=C(N2)C3=CC=NC=C3)C4=CC(=C(C=C4)Cl)O
Summary of the method: as §1

[6] = compound: C1=CC=C2C(=C1)C3=NNC4=CC=CC(=C43)C2=O
Summary of the method: as §1

[7] = compound: C1CCN(C1)C(=O)NC2=CC=CC(=C2)NC3=NC=C(C(=N3)NCCC4=CN=CN4)Br
Summary of the method: as §1

[8] = compound: C1CN(CCC1(CC2=CC=C(C=C2)Cl)N)C3=NC=NC4=C3C=CN4
Summary of the method: as §1

IRAK-1-4 Inhibitor I = compound: C1COCCN1CCN2C3=CC=CC=C3N=C2NC(=O)C4=CC(=CC=C4)[N+](=O)[O-] [IRAK-1-4 Inhibitor I]
Summary of the method: as §1

ibrutinib = compound: C=CC(=O)N1CCC[C@@H](n2nc(-c3ccc(Oc4ccccc4)cc3)c3c(N)ncnc32)C1 [ibrutinib]
Summary of the method: as §1

[9] = compound: CC(=O)c1cnc2ccc(-c3cc(Cl)c(O)c(Cl)c3)nc2c1N[C@H]1CC[C@H](CN(C)C)CC1
Summary of the method: as §1

ralimetinib = compound: CC(C)(C)Cn1c(N)nc2ccc(-c3[nH]c(C(C)(C)C)nc3-c3ccc(F)cc3)nc21 [ralimetinib]
Summary of the method: as §1

[10] = compound: CC(C)(O)CC(=O)NCCn1ccc2ncnc(Nc3ccc(Oc4cccc(C(F)(F)F)c4)c(Cl)c3)c21
Summary of the method: as §1

[11] = compound: CC(C)C1=C2N=C(C=C(N2N=C1)NCC3=CC=CC=C3)NCCCCCCN
Summary of the method: as §1

[12] = compound: CC1=C(C(CC(=O)N1)C2=CC=C(C=C2)C(F)(F)F)C(=O)NC3=C(C=C4C(=C3)C=NN4)F
Summary of the method: as §1

[13] = compound: CC1=C(C2=C(C=C1)C(=O)C3=CC=CC=C3N2CCCN)C
Summary of the method: as §1

[14] = compound: CC1=C(C=C(C=C1)NC(=O)C2=CC(=CC=C2)C(C)(C)C#N)NC3=CC4=C(C=C3)N=CN(C4=O)C
Summary of the method: as §1

[15] = compound: CC1=C(C=C(C=C1)NC(=O)C2=CC(=CC=C2)N(C)C)NC(=O)C3=CC=C(C=C3)O
Summary of the method: as §1

[16] = compound: CC1=CC=C(C=C1)SC2=C3C=C(SC3=CN=C2)C(=O)N
Summary of the method: as §1

Measured: log2 fold change

MSL1 (UniProt Q68DK7)
inactive: erlotinib 0.068 | [1] 0.036 | [2] 0.001 | [3] -0.034 | [4] 0.086 | [5] 0 | [6] -0.079 | [7] 0.05 | [8] -0.101 | IRAK-1-4 Inhibitor I 0.07 | ibrutinib -0.002 | [9] -0.022 | ralimetinib -0.032 | [10] -0.126 | [11] 0.028 | [12] -0.106 | [13] -0.017 | [14] 0.07 | [15] -0.014 | [16] -0.062

MSH2 (UniProt P43246)
inactive: erlotinib 0.003 | [1] 0.018 | [2] -0.028 | [3] 0.028 | [4] 0.013 | [5] 0.017 | [6] -0.019 | [7] -0.01 | [8] 0.012 | IRAK-1-4 Inhibitor I -0.009 | ibrutinib -0.009 | [9] -0.01 | ralimetinib 0.019 | [10] 0.02 | [11] 0.019 | [12] -0.012 | [13] -0.014 | [14] 0 | [15] 0.037 | [16] 0.019

MSTO1 (UniProt Q9BUK6)
inactive: erlotinib 0.035 | [1] 0.027 | [2] 0.066 | [3] 0 | [4] -0.001 | [5] -0.015 | [6] 0.007 | [7] -0.027 | [8] -0.001 | IRAK-1-4 Inhibitor I 0.003 | ibrutinib 0.018 | [9] 0.065 | ralimetinib 0.049 | [10] 0.018 | [11] -0.117 | [12] 0.014 | [13] 0.018 | [14] -0.01 | [15] 0.028 | [16] 0.02

MRPL41 (UniProt Q8IXM3)
inactive: erlotinib -0.099 | [1] 0.082 | [2] 0.004 | [3] 0.078 | [4] -0.023 | [5] 0.014 | [6] -0.069 | [7] 0.095 | [8] -0.001 | IRAK-1-4 Inhibitor I 0.02 | ibrutinib -0.02 | [9] 0.026 | ralimetinib -0.005 | [10] 0 | [11] 0.013 | [12] 0.009 | [13] -0.075 | [14] -0.051 | [15] 0.021 | [16] 0.015

MSI2 (UniProt Q96DH6)
inactive: erlotinib -0.04 | [1] -0.277 | [2] 0.035 | [3] -0.047 | [4] 0.084 | [5] -0.034 | [6] -0.011 | [7] 0.03 | [8] 0.027 | IRAK-1-4 Inhibitor I 0.057 | ibrutinib 0.044 | [9] -0.024 | ralimetinib 0.032 | [10] -0.039 | [11] 0.015 | [12] -0.029 | [13] 0.009 | [15] 0.03 | [16] 0.054
active: [14] -0.315

MSMO1 (UniProt Q15800)
inactive: erlotinib 0.09 | [1] -0.075 | [2] 0.03 | [3] 0.028 | [4] 0.062 | [5] 0.003 | [6] -0.025 | [7] -0.002 | [8] -0.019 | IRAK-1-4 Inhibitor I 0.082 | ibrutinib -0.049 | [9] -0.004 | ralimetinib -0.051 | [10] -0.035 | [11] 0.04 | [12] -0.032 | [13] -0.024 | [14] 0.004 | [15] 0 | [16] -0.015

MRPS35 (UniProt P82673)
inactive: erlotinib 0.025 | [1] -0.12 | [2] 0.009 | [3] 0.021 | [4] -0.024 | [5] 0.005 | [6] -0.044 | [7] -0.029 | [8] -0.065 | IRAK-1-4 Inhibitor I 0.04 | ibrutinib -0.005 | [9] -0.067 | ralimetinib -0.004 | [10] 0.002 | [11] -0.005 | [12] -0.026 | [13] -0.039 | [14] 0.001 | [15] 0.028 | [16] -0.027

MRPS27 isoform 2 (UniProt Q92552)
inactive: erlotinib 0.035 | [1] -0.03 | [2] 0.052 | [3] 0.016 | [4] -0.003 | [5] 0.01 | [6] -0.078 | [7] 0 | [8] 0.009 | IRAK-1-4 Inhibitor I 0.033 | ibrutinib -0.015 | [9] -0.01 | ralimetinib 0.016 | [10] -0.004 | [11] 0.026 | [12] -0.041 | [13] -0.051 | [14] 0.031 | [15] 0.036 | [16] -0.002

MTRF1L (UniProt Q9UGC7)
inactive: erlotinib -0.013 | [1] -0.362 | [2] 0.072 | [3] 0.055 | [4] -0.008 | [5] 0.093 | [6] 0.079 | [7] 0.01 | [8] -0.098 | IRAK-1-4 Inhibitor I -0.003 | ibrutinib 0.001 | [9] -0.007 | ralimetinib -0.029 | [10] -0.021 | [11] -0.045 | [12] 0.053 | [13] -0.058 | [14] 0.025 | [15] -0.001 | [16] -0.051

MRPS5 (UniProt P82675)
inactive: erlotinib -0.019 | [1] 0.045 | [2] 0.016 | [3] -0.036 | [4] -0.051 | [5] -0.032 | [6] -0.005 | [7] 0.087 | [8] 0.038 | IRAK-1-4 Inhibitor I -0.037 | ibrutinib -0.008 | [9] -0.055 | ralimetinib -0.008 | [10] 0.039 | [11] -0.001 | [12] -0.009 | [13] -0.155 | [14] 0.029 | [15] -0.001 | [16] -0.01

MRPS10 (UniProt P82664)
inactive: erlotinib -0.008 | [1] -0.066 | [2] 0.035 | [3] -0.023 | [4] -0.057 | [5] 0.04 | [6] -0.113 | [7] -0.034 | [8] 0.017 | IRAK-1-4 Inhibitor I 0.027 | ibrutinib -0.02 | [9] -0.04 | ralimetinib 0.008 | [10] -0.023 | [11] 0.028 | [12] 0.023 | [13] -0.034 | [14] 0.009 | [15] 0.021 | [16] -0.008

MT-CO1 (UniProt P00395)
inactive: erlotinib -0.021 | [1] 0.069 | [2] 0.063 | [3] -0.065 | [4] 0.027 | [5] -0.033 | [6] 0.08 | [7] 0.003 | [8] -0.049 | IRAK-1-4 Inhibitor I 0.068 | ibrutinib 0.044 | [9] 0.027 | ralimetinib 0.005 | [10] -0.038 | [11] -0.003 | [12] 0.066 | [13] -0.014 | [14] -0.003 | [15] -0.022 | [16] 0.03

Looked up one by one from above (2):
MRPS10 (UniProt P82664)
inactive: erlotinib -0.008 | [1] -0.066 | [2] 0.035 | [3] -0.023 | [4] -0.057 | [5] 0.04 | [6] -0.113 | [7] -0.034 | [8] 0.017 | IRAK-1-4 Inhibitor I 0.027 | ibrutinib -0.02 | [9] -0.04 | ralimetinib 0.008 | [10] -0.023 | [11] 0.028 | [12] 0.023 | [13] -0.034 | [14] 0.009 | [15] 0.021 | [16] -0.008

MT-CO1 (UniProt P00395)
inactive: erlotinib -0.021 | [1] 0.069 | [2] 0.063 | [3] -0.065 | [4] 0.027 | [5] -0.033 | [6] 0.08 | [7] 0.003 | [8] -0.049 | IRAK-1-4 Inhibitor I 0.068 | ibrutinib 0.044 | [9] 0.027 | ralimetinib 0.005 | [10] -0.038 | [11] -0.003 | [12] 0.066 | [13] -0.014 | [14] -0.003 | [15] -0.022 | [16] 0.03

The results go on.

MRPS34 (UniProt P82930)
inactive: erlotinib 0.053 | [1] -0.039 | [2] 0.027 | [3] 0.034 | [4] 0.026 | [5] -0.055 | [6] 0.056 | [7] 0.049 | [8] 0.115 | IRAK-1-4 Inhibitor I 0.051 | ibrutinib -0.02 | [9] -0.003 | ralimetinib -0.024 | [10] 0.022 | [11] -0.031 | [12] -0.019 | [13] -0.074 | [14] -0.041 | [15] 0.015 | [16] 0.022

MRRF (UniProt Q96E11)
inactive: erlotinib -0.011 | [1] -0.006 | [2] 0.005 | [3] 0 | [4] 0.021 | [5] -0.008 | [6] -0.017 | [7] 0.064 | [8] 0.049 | IRAK-1-4 Inhibitor I 0.009 | ibrutinib 0.083 | [9] 0.027 | ralimetinib -0.007 | [10] -0.036 | [11] -0.016 | [12] 0.007 | [13] -0.025 | [14] -0.015 | [15] 0.008 | [16] 0.017

MTA2 (UniProt O94776)
inactive: erlotinib -0.025 | [1] -0.017 | [2] 0.019 | [3] 0.013 | [4] -0.012 | [5] -0.015 | [6] -0.023 | [7] -0.007 | [8] 0.021 | IRAK-1-4 Inhibitor I -0.005 | ibrutinib -0.014 | [9] -0.023 | ralimetinib 0.03 | [10] 0.021 | [11] 0.032 | [12] 0.011 | [13] 0.018 | [14] -0.008 | [15] 0.043 | [16] -0.009
